Further values from the same series stand in other lists.
System: TC/TEAD transcriptional profile in TC-expressing NIH3T3 cells
Assay: Bulk RNA-Seq, differential gene expression and GSEA (TC ATA v. TC DMSO)
Assay type: cell-based, murine
Conditions: TC ATA v. TC DMSO
Protocol: NIH3T3 and HEK293 cells were obtained from the American Type Tissue Collection (ATCC, Manassas, VA) and cultured in DMEM containing 10% fetal bovine serum and penicillin/streptomycin. A TEAD dual luciferase reporter assay was performed as previously described. Cells were treated with vehicle control or ATA (10 μM) for 48 h before measuring the luciferase activity or processing the samples for RNA extraction. Each experiment was repeated at least 2-3 times. NIH3T3 cells were used. The extracted RNA (RNeasy Mini, Qiagen) from treated cells was either used for qPCR measurements or sent for bulk RNA-Seq. Sequencing runs were performed on an Illumina HiSeq 4000 sequencer (Genewiz). Subsequent bioinformatics analysis was performed in the Galaxy Project platform. Paired end reads were aligned to the murine genome ([…]2 [27]. Raw count files were generated with featureCounts using a corresponding GTF reference. Differential gene expression analysis was performed with DESeq2 [29]. Transcripts were considered to be differentially expressed if the false discovery rate < 0.05 and Log2FC > 2. When performing differential gene expression for GSEA analysis, the Limma package was used (<5 CPM filtering) with t-scores used for rank statistics. GSEA plots and statistics were generated with FGSEA with custom gene sets. Raw sequencing reads and processed files have been deposited in the GEO repository (data will be uploaded upon manuscript acceptance). The Universal Probe Library probes (Roche) and the associated primer sequences for the qPCR targets are listed below: […]

## O=C(O)C1=CC(=C(c2ccc(O)c(C(=O)O)c2)c2ccc(O)c(C(=O)O)c2)C=CC1=O [ATA, aurintricarboxylic acid]
Gene Etv5
  Log2 Fold Change: -0.424
Gene F3
  Log2 Fold Change: 0.7181
Gene Faim2
  Log2 Fold Change: 0.686
Gene Fam13a
  Log2 Fold Change: 0.7432
Gene Fam72a
  Log2 Fold Change: -0.4503
Gene Fam168a
  Log2 Fold Change: 0.2462
Gene Fam185a
  Log2 Fold Change: -0.3602
Gene Fap
  Log2 Fold Change: 1.127
Gene Fat4
  Log2 Fold Change: 1.161
Gene Fbxl20
  Log2 Fold Change: 0.4357
Gene Fcgrt
  Log2 Fold Change: 0.6784
Gene Fez1
  Log2 Fold Change: -0.4591
Gene Fgd4
  Log2 Fold Change: -0.6665
Gene Fgf2
  Log2 Fold Change: -0.4873
Gene Fgf10
  Log2 Fold Change: 0.5355
Gene Fhl1
  Log2 Fold Change: 0.813
Gene Fig4
  Log2 Fold Change: 0.3382
Gene Filip1l
  Log2 Fold Change: 0.2972
Gene Fip1l1
  Log2 Fold Change: -0.1961
Gene Fkbp4
  Log2 Fold Change: -0.1887
Gene Fkbp14
  Log2 Fold Change: 0.3983
Gene Flrt2
  Log2 Fold Change: -0.4337
Gene Flt1
  Log2 Fold Change: 0.3634
Gene Fmn1
  Log2 Fold Change: 0.4709
Gene Fmod
  Log2 Fold Change: 1.646
Gene Fnbp1
  Log2 Fold Change: 0.3623
Gene Fos
  Log2 Fold Change: 1.593
Gene Fosl1
  Log2 Fold Change: -0.3528
Gene Foxc2
  Log2 Fold Change: -0.4836
Gene Frmd4a
  Log2 Fold Change: -0.2962
Gene Ftl1
  Log2 Fold Change: 0.2585
Gene Fubp1
  Log2 Fold Change: -0.2103
Gene Fuca1
  Log2 Fold Change: 0.3144
Gene Fxyd1
  Log2 Fold Change: 0.8951
Gene Fzd1
  Log2 Fold Change: 0.5325
Gene Fzd5
  Log2 Fold Change: -0.4461
Gene Gabarap
  Log2 Fold Change: 0.309
Gene Galk2
  Log2 Fold Change: 0.3816
Gene Galnt10
  Log2 Fold Change: 0.2542
Gene Galnt18
  Log2 Fold Change: 0.3573
Gene Gas6
  Log2 Fold Change: 0.4148
Gene Gatm
  Log2 Fold Change: -0.9516
Gene Gclc
  Log2 Fold Change: 0.2433
Gene Gdnf
  Log2 Fold Change: -0.3219
Gene Gdpd2
  Log2 Fold Change: 1.574
Gene Gem
  Log2 Fold Change: 0.6083
Gene Gemin5
  Log2 Fold Change: -0.2732
Gene Gfra1
  Log2 Fold Change: -0.6194
Gene Ghr
  Log2 Fold Change: 0.4181
Gene Gja1
  Log2 Fold Change: -0.3185
Gene Gjb3
  Log2 Fold Change: -0.4357
Gene Gm2383
  Log2 Fold Change: 1.428
Gene Gm4518
  Log2 Fold Change: 0.9557
Gene Gm4795
  Log2 Fold Change: 1.427
Gene Gm4835
  Log2 Fold Change: 1.084
Gene Gm6043
  Log2 Fold Change: 1.139
Gene Gm7399
  Log2 Fold Change: 0.7595
Gene Gm7993
  Log2 Fold Change: -0.4096
Gene Gm10110
  Log2 Fold Change: -0.2483
Gene Gm12840
  Log2 Fold Change: 0.7884
Gene Gm12966
  Log2 Fold Change: 0.4386
Gene Gm17501
  Log2 Fold Change: 0.3061
Gene Gm20186
  Log2 Fold Change: 0.674
Gene Gm28661
  Log2 Fold Change: 0.4284
Gene Gm42743
  Log2 Fold Change: 1.449
Gene Gm42979
  Log2 Fold Change: -0.7369
Gene Gm44777
  Log2 Fold Change: -0.8489
Gene Gnb4
  Log2 Fold Change: -0.3878
Gene Gng11
  Log2 Fold Change: 0.4255
Gene Gpat3
  Log2 Fold Change: -0.3475
Gene Gpnmb
  Log2 Fold Change: 0.9926
Gene Gpr176
  Log2 Fold Change: 0.2333
Gene Gprc5a
  Log2 Fold Change: -0.2591
Gene Gpx1
  Log2 Fold Change: -0.446
Gene Grb14
  Log2 Fold Change: -0.4173
Gene Grn
  Log2 Fold Change: 0.3053
Gene Gstm2
  Log2 Fold Change: 0.6705
Gene Gsto2
  Log2 Fold Change: -0.4535
Gene H1f2
  Log2 Fold Change: 0.6052
Gene H2-Q4
  Log2 Fold Change: 0.4936
Gene H2bc4
  Log2 Fold Change: 0.7374
Gene H4c9
  Log2 Fold Change: 0.7269
Gene Hacd2
  Log2 Fold Change: 0.3072
Gene Hba-a1
  Log2 Fold Change: 1.35
Gene Hdac5
  Log2 Fold Change: 0.2652
Gene Heatr1
  Log2 Fold Change: -0.2941
Gene Hfe
  Log2 Fold Change: 0.6813
Gene Hic1
  Log2 Fold Change: -0.2341
Gene Hip1
  Log2 Fold Change: 0.3247
Gene Hk2
  Log2 Fold Change: -0.3363
Gene Hlf
  Log2 Fold Change: -0.7573
Gene Hmcn2
  Log2 Fold Change: 0.8604
Gene Hmga1
  Log2 Fold Change: -0.5179
Gene Hmga2
  Log2 Fold Change: -0.4615
Gene Hmgcl
  Log2 Fold Change: 0.242
Gene Hrc
  Log2 Fold Change: 0.5233
Gene Hrh2
  Log2 Fold Change: 1.131
Gene Hspa1b
  Log2 Fold Change: 0.3565
Gene Hspb1
  Log2 Fold Change: -0.6806
Gene Hspb6
  Log2 Fold Change: 0.5505
Gene Htra3
  Log2 Fold Change: 1.172
Gene Iars
  Log2 Fold Change: -0.1916
Gene Id2
  Log2 Fold Change: 0.8422
Gene Id4
  Log2 Fold Change: 1.169
Gene Idh1
  Log2 Fold Change: 0.5659
Gene Ifi27
  Log2 Fold Change: 0.3321
Gene Ifitm3
  Log2 Fold Change: 0.5415
Gene Ifrd2
  Log2 Fold Change: -0.3152
Gene Igf1
  Log2 Fold Change: 0.6117
Gene Igfbp2
  Log2 Fold Change: -1.024
Gene Igfbp5
  Log2 Fold Change: -0.6348
Gene Igfbp7
  Log2 Fold Change: 0.6078
Gene Iglon5
  Log2 Fold Change: 0.2843
Gene Igsf10
  Log2 Fold Change: 0.8881
Gene Ikzf2
  Log2 Fold Change: 0.8994
Gene Il1rap
  Log2 Fold Change: -0.3094
Gene Il1rl1
  Log2 Fold Change: -0.4998
Gene Il15ra
  Log2 Fold Change: -0.4837
Gene Il18
  Log2 Fold Change: 0.8015
Gene Impact
  Log2 Fold Change: 0.3705
Gene Impdh2-ps
  Log2 Fold Change: -0.2275
Gene Inpp5a
  Log2 Fold Change: 0.2235
Gene Insig1
  Log2 Fold Change: 0.222
Gene Iqgap3
  Log2 Fold Change: -0.2957
Gene Irf5
  Log2 Fold Change: 1.172
Gene Itga8
  Log2 Fold Change: 0.8354
Gene Itga11
  Log2 Fold Change: 1.206
Gene Itgb5
  Log2 Fold Change: 0.3445
Gene Itgb7
  Log2 Fold Change: -0.4787
Gene Itm2b
  Log2 Fold Change: 0.3071
Gene Itpr2
  Log2 Fold Change: 0.4213
Gene Jade1
  Log2 Fold Change: 0.3235
Gene Jun
  Log2 Fold Change: -0.2996
Gene Junb
  Log2 Fold Change: 0.4133
Gene Kank1
  Log2 Fold Change: 0.4062
Gene Kank3
  Log2 Fold Change: -0.6814
Gene Kazald1
  Log2 Fold Change: 0.8401
Gene Kbtbd7
  Log2 Fold Change: 0.5869
Gene Kcnab3
  Log2 Fold Change: -0.6117
Gene Kdelr3
  Log2 Fold Change: 0.2731
Gene Kif2a
  Log2 Fold Change: -0.1966
Gene Kif6
  Log2 Fold Change: 0.5733
Gene Kif26b
  Log2 Fold Change: 0.619
Gene Kirrel3
  Log2 Fold Change: -0.8006
Gene Klf2
  Log2 Fold Change: 0.5059
Gene Klf3
  Log2 Fold Change: 0.2097
Gene Krt13
  Log2 Fold Change: 0.6224
Gene Krt80
  Log2 Fold Change: -0.2808
Gene Lamb1
  Log2 Fold Change: -0.2993
Gene Lamp2
  Log2 Fold Change: 0.3342
Gene Ldb3
  Log2 Fold Change: 0.5967
Gene Lgalsl
  Log2 Fold Change: 0.1915
Gene Lgmn
  Log2 Fold Change: 0.1929
Gene Lgr6
  Log2 Fold Change: -1.074
Gene Lima1
  Log2 Fold Change: 0.3371
Gene Lipe
  Log2 Fold Change: 0.3942
Gene Lix1l
  Log2 Fold Change: 0.2896
Gene Lmod1
  Log2 Fold Change: 0.9334
Gene Lmod3
  Log2 Fold Change: 0.8146
Gene Lox
  Log2 Fold Change: 0.2998
Gene Lpar1
  Log2 Fold Change: 0.276
Gene Lpin1
  Log2 Fold Change: 0.3626
Gene Lrrc8c
  Log2 Fold Change: -0.2592
Gene Lrrc17
  Log2 Fold Change: 0.4583
Gene Lrrc75b
  Log2 Fold Change: 1.131
Gene Lrrfip1
  Log2 Fold Change: -0.2832
Gene Lrwd1
  Log2 Fold Change: -0.204
Gene Lurap1l
  Log2 Fold Change: 0.3734
Gene Lvrn
  Log2 Fold Change: 0.5306
Gene Lxn
  Log2 Fold Change: 0.6784
Gene Ly6c1
  Log2 Fold Change: 1.036
Gene Lynx1
  Log2 Fold Change: 0.3893
Gene Lyrm7
  Log2 Fold Change: 0.9256
Gene Lyz2
  Log2 Fold Change: 0.7637
Gene Macrod1
  Log2 Fold Change: 0.3911
Gene Maf
  Log2 Fold Change: 0.6697
Gene Maff
  Log2 Fold Change: -0.3326
Gene Mafk
  Log2 Fold Change: -0.2157
Gene Maged2
  Log2 Fold Change: 0.3246
Gene Mamdc2
  Log2 Fold Change: 0.7056
Gene Man1c1
  Log2 Fold Change: 0.3605
Gene Mapk6
  Log2 Fold Change: -0.3408
Gene Masp1
  Log2 Fold Change: 0.5504
Gene Mast4
  Log2 Fold Change: -0.2941
Gene Mat2b
  Log2 Fold Change: 0.2814
Gene Matn2
  Log2 Fold Change: 0.596
Gene Mb
  Log2 Fold Change: 1.291
Gene Mboat1
  Log2 Fold Change: -0.4553
Gene Mef2c
  Log2 Fold Change: 0.4908
Gene Megf9
  Log2 Fold Change: 0.2583
Gene Met
  Log2 Fold Change: -0.2733
Gene Mettl27
  Log2 Fold Change: 0.3928
Gene Mgp
  Log2 Fold Change: 0.971
Gene Mindy2
  Log2 Fold Change: 0.4845
Gene Mmp14
  Log2 Fold Change: 0.4309
Gene Mmp19
  Log2 Fold Change: 0.7302
Gene Mpp1
  Log2 Fold Change: 0.2306
Gene Mpz
  Log2 Fold Change: 1.0955
Gene Mr1
  Log2 Fold Change: 0.5676
Gene Mrpl38
  Log2 Fold Change: -0.2105
Gene Ms4a4d
  Log2 Fold Change: 0.4769
Gene Msln
  Log2 Fold Change: -0.9365
Gene Msn
  Log2 Fold Change: -0.1996
Gene Msrb3
  Log2 Fold Change: 0.2807
Gene Mtcl1
  Log2 Fold Change: -0.2994
Gene Mthfd1
  Log2 Fold Change: -0.2489
Gene Mthfd2
  Log2 Fold Change: -0.2278
Gene Mtss2
  Log2 Fold Change: 0.3543
Gene Mtus2
  Log2 Fold Change: 0.9392
Gene Mustn1
  Log2 Fold Change: 0.7761
Gene Mxd4
  Log2 Fold Change: 0.8515
Gene Mxra8
  Log2 Fold Change: 0.5226
Gene Mybbp1a
  Log2 Fold Change: -0.2644
Gene Myc
  Log2 Fold Change: -0.2262
Gene Myd88
  Log2 Fold Change: 0.3237
Gene Myh1
  Log2 Fold Change: 1.101
Gene Myh2
  Log2 Fold Change: 1.365
Gene Myh7
  Log2 Fold Change: 1.309
Gene Myh11
  Log2 Fold Change: 1.121
Gene Myl2
  Log2 Fold Change: 1.786
Gene Myl9
  Log2 Fold Change: 1.182
Gene Mylip
  Log2 Fold Change: 0.2657
Gene Mylk2
  Log2 Fold Change: 0.5639
Gene Myo18a
  Log2 Fold Change: 0.3328
